The text below walks through data of patent US12398117B2, “Heteroarylamidopyridinol derivative and pharmaceutical composition comprising same as active ingredient for prevention or treatment of autoimmune disease” (INNOVO THERAPEUTICS INC., priority 2019, dated 2025).

Assay [1] relates to adhesion of intestinal epithelial cells (HT-29) and monocytic cells (U937) induced by TNF-α. Nature of the assay: Inhibition of TNF-α-induced adhesion of monocytes and intestinal epithelial cells. The class given is cell-based. The following applies: Homo sapiens. The procedure:
HT-29 human colon cancer-derived epithelial cells and U937 human-derived monocytes were cultured in RPMI 1640 medium containing 10% FBS and 1% penicillin/streptomycin (PS) in a 37° C., 5% CO2 incubator. When the cells grew more than 80% of the bottom area of the culture flask, they were passaged at a ratio of 1:3 and used in this experiment. HT-29 cells were cultured in a 24-well plate at the density of 2×10^5 cells/cm^2, and the test drug was pretreated in a medium containing 1% FBS and 1% PS for 1 hour. Thereafter, 10 μg/mL of BCECF-AM was treated thereto and reacted at 37° C. for 30 minutes. U937 cells loaded with BCECF and TNF-α (10 ng/mL) were reacted with HT-29 cells previously treated with the test drug at 37° C. for 3 hours. Upon completion of the reaction, the medium was removed, and the culture flask was washed twice with PBS to remove non-adherent U937 cells. In the next step, the cells were lysed by treating with 0.1% Triton X-100 (0.1 M Tris) and reacted at room temperature for 30 minutes. Then, fluorescence was measured and quantified using a fluostar optima microplate reader (BMG Labtechnologies, Germany) (Carvalho et al., 1996; Thapa et al., 2008).

The test system of assay [2] is adhesion of intestinal epithelial cells (HT-29) and monocytic cells (U937) induced by IL-6. In words: Inhibition of IL-6-induced adhesion of monocytes and intestinal epithelial cells. The following applies: Homo sapiens; inhibition of adhesion by IL-6. Type of assay: cell-based. As for the experimental part: The inhibitory activity test for intestinal epithelial cell-monocyte adhesion by IL-6 was performed using the same method as in the case of TNF-α. HT-29 cells were cultured in a 24-well plate at the density of 2×10^5 cells/cm^2, and the test drug was pretreated in a medium containing 1% FBS and 1% PS for 1 hour. Thereafter, 10 μg/mL of BCECF-AM was treated thereto and reacted at 37° C. for 30 minutes. U937 cells loaded with BCECF and IL-6 (10 ng/mL) were reacted with HT-29 cells previously treated with the test drug at 37° C. for 3 hours. Upon completion of the reaction, the medium was removed, and the culture flask was washed twice with PBS to remove non-adherent U937 cells. In the next step, the cells were lysed by treating with 0.1% Triton X-100 (0.1 M Tris) and reacted at room temperature for 30 minutes. Then, fluorescence was measured and quantified using a fluostar optima microplate reader (BMG Labtechnologies, Germany).

Regarding `C[C@@H]1CCN(C(=O)CC#N)C[C@@H]1N(C)c1ncnc2[nH]ccc12` [Tofacitinib, reference compound], the IC50 (as a rule, the point on the concentration scale where inhibition reaches its midpoint) in assay [1] came to 700 nM; in assay [2], 440 nM.
